No constants are given. Whether binding was seen depends on the method and setting. In cells and extracts the contact can be indirect. Some binding calls cover weakened binding; strength is not graded here. For some assays here: Sequences can lack the tags named with a protein. One block for each molecule: values may come before it.
Tests used:
[1] = target: T1, endogenous TRIM69 (human (endogenous in SW-1990)) (UniProt Q86WT6); assay: co-IP; endogenous proteins, cytoplasmic extractions of SW-1990 cells; TRIM69 precipitated, blotted with antibodies against EYA4 and P53
T1 sequence: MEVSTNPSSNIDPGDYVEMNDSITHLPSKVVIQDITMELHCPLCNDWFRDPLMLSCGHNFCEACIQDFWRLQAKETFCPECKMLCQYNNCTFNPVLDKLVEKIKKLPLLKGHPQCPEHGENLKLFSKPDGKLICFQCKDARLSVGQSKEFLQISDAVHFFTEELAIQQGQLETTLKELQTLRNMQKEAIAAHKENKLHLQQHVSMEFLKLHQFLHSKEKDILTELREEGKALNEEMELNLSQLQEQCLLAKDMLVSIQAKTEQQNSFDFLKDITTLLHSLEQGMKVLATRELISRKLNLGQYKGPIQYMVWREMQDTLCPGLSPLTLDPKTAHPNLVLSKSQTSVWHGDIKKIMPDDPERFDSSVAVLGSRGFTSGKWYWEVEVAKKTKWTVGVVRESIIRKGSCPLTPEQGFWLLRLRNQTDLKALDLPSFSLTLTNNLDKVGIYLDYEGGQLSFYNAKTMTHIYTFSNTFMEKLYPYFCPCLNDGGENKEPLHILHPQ

[2] = target: T2, GFP-tagged wild-type EYA4 (Eyes absent homologue 4) (human) (UniProt O95677); assay: co-IP; SW-1990 transfectants coexpressing GFP-EYA4 plus Flag-TRIM69; lysed in RIPA buffer, protein A/G-agarose beads and primary antibody at 4 °C overnight, washed with 50 mmol/L Tris-HCl pH 7.6, 300 mmol/L NaCl, 1 mmol/L EDTA, 0.5% NP-40, 10% glycerol; both orientations (GFP and Flag)
T2 sequence: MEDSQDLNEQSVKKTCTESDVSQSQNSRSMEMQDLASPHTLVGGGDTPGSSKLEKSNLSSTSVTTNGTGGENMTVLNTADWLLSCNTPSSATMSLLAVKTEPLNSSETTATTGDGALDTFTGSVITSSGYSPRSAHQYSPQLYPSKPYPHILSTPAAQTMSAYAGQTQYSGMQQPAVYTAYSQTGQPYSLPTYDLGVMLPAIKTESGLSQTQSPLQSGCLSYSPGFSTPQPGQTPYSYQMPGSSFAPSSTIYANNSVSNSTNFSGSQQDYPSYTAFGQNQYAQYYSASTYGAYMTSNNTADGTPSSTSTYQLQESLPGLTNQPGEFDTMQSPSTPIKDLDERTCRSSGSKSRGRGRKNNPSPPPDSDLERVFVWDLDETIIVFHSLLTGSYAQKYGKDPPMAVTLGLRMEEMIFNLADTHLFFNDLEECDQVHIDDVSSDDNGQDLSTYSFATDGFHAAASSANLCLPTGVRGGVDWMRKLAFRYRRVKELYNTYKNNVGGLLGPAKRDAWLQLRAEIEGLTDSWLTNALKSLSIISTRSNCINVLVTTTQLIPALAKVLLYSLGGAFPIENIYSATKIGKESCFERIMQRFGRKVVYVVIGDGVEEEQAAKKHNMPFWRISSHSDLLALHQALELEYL

- binding [1]: binds
Molecule: endogenous P53 (from UniProt P04637 1-393)

- binding [2]: binds
B1: Flag-tagged wild-type full-length TRIM69 (tripartite motif containing 69) (protein, UniProt Q86WT6 1-500)
chain: T1 sequence

Source: PMC9891873
